PubChem BioAssay AID504444 (National Center for Advancing Translational Sciences (NCATS), 2011)
Among all 360,000 compounds or so, about 7,500 (2.1%) were called active. Inconclusive results, whose numbers are uncertain, are shown with a selection of clear calls. The call rests on the fitted dose curve; in most records, active means well fitted inhibition curve with a large enough effect; inconclusive means small, poorly fitted or top-dose-only effect, or effect the other way; inactive means flat fitted curve, though single readings scatter. A potency beside an inconclusive call is a rough fit, not a confirmed value.

test: Nrf2 qHTS screen for inhibitors; details: A549 ARE-Fluc reporter, luciferase luminescence, 18-24 h; activity change, negative = inhibition: at 46 µM (top of the series); further: nearly all actives have a fitted effect of over 60% in size
How it was run: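 A549 ARE_Fluc cells, 5000/well, 5% FBS OPTI-MEM; compounds in dose-response, 18-24 h at 37 °C/5% CO2; CellTiter-Fluor viability read (Ex 405/Em 525), then BugLite luciferase luminescence = Nrf2 activity.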
On the % scale 0 is the no-effect control and ±100 the full control effect; potency means the concentration at half of the fitted maximal effect.

| SMILES | Potency | activity change, negative = inhibition |
| --- | --- | --- |
| CCN(c1ccccc1)S(=O)(=O)c1cc(C(=O)Nc2ccc(F)c(F)c2)ccc1F | inconclusive: 25.9 µM [falling, single point] | – |
| O=C(Nc1ccc(Br)cc1)c1ccc(F)c(S(=O)(=O)NCc2cccs2)c1 | active: 11.6 µM | – |
| CCOc1cc(Br)ccc1S(=O)(=O)NCc1ccccc1 | – | inactive: 1.21% |
| O=C(CSc1nnc(-c2ccccn2)o1)Nc1ccccc1C(F)(F)F | inconclusive: 29.1 µM [activator, single point] | – |
| CCCCOc1ccc(-c2nn(-c3ccccc3)cc2C2NC(=O)NC(C)=C2C(=O)OCC)cc1 (stereo not drawn) | inconclusive: 23.1 µM [falling, single point] | – |
| O=C(Nc1ccc(OCc2ccccc2Cl)cc1)c1cccnc1 | active: 9.2 µM | – |
| Cc1cc2oc(=O)sc2cc1NS(=O)(=O)c1ccccc1 | inconclusive: 10.3 µM [falling, partial curve, poor fit] | – |
| O=C(N/N=C/c1cccc(NC(=O)c2ccc(Cl)cc2)c1)c1ccc(O)cc1 | inconclusive: 18.4 µM [activator, single point] | – |
| Cc1c(Cl)cccc1NC(=O)c1cccc(NC(=O)N2CCSc3ncccc32)c1 | inconclusive: 29.1 µM [falling, single point] | – |
| Nc1nc(N)nc(-c2cc(O)ccc2O)n1 | inconclusive: 4.61 µM [falling, partial curve, poor fit] | – |
| COc1ccccc1N1CCN(C(=O)CN2C(=O)c3ccccc3S2(=O)=O)CC1 | inconclusive: 29.1 µM [falling, single point] | – |
| COc1cc(-c2cc(N)n(S(=O)(=O)c3ccc(F)cc3)n2)cc(OC)c1OC | inconclusive: 29.1 µM [falling, single point] | – |
| CN[C@H]1CCc2cc(OC)c(OC)c(OC)c2-c2ccc(N(C)CC(OC)OC)c(=O)cc21 | – | inactive: 9.63% |
| Cc1cccc(Cn2c(=O)c3c(nc4n3CCCN4Cc3ccccc3)n(C)c2=O)c1 | inconclusive: 35.5 µM [falling, single point] | – |
| COc1ccc(/C=N\NC(=O)c2ccccc2Br)cc1COc1c(F)c(F)cc(F)c1F | active: 5.17 µM | – |
| Cc1ccccc1OCc1nnc(SCc2cc(=O)[nH]c3ccccc23)n1-c1ccccc1 | inconclusive: 18.4 µM [falling, single point] | – |
| Cc1cc(NC(=O)Nc2ccccc2F)ccc1Br | inconclusive: 2.31 µM [activator, full curve] | – |
| Cc1cc(N/N=C/c2c(O)ccc3ccccc23)nc(-c2ccccc2O)n1 | inconclusive: 32.6 µM [falling, single point] | – |
